# Experimental data published in the supplement of paper PMC10735217.
# Where a name gives a salt, the structure may show the parent alone. This is one part of the list. Single values are uncertain here, since repeats match poorly.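 Human kidney-derived cells stably carry a construct in which eight TEAD-binding elements drive luciferase, measured by luminescence in a drug-repurposing library screen. A hit is any compound whose signal exceeds the plate mean by more than five robust Z scores.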
# Test system: HEK293A TEAD-LUC reporter
# Assay: TEAD-luciferase reporter activity (YAP activation), robust Z score vs plate; higher = stronger YAP/TEAD activation
# Conditions: 24 h
SMILES,TEAD-luciferase reporter activity (compound concentration: 200 nM),TEAD-luciferase reporter activity (compound concentration: 2 uM),TEAD-luciferase reporter activity (compound concentration: 10 uM)
CC1(C)SCCN(S(=O)(=O)c2ccc(Oc3ccncc3)cc2)[C@H]1C(=O)NO [Prinomastat],inactive: -0.658,inactive: -0.127,inactive: -1.72
C[Si](C)(C)O[Si](C)(C)O[Si](C)(C)C [dimethicone],,inactive: -1.2,
"C[Si](C)(C)O[Si](C)(C)O[Si](C)(C)C [dimethicone, Applied Biology]",inactive: 1.26,,inactive: 0.0844
Cc1cc(C)c(/C=C2\C(=O)Nc3ccccc32)[nH]1 [Semaxanib],inactive: -1.1,inactive: -0.647,inactive: -0.0313
Oc1c(CN2CCCC2)cc(Nc2ncnc3ccccc23)cc1CN1CCCC1 [Changrolin],inactive: -1.43,inactive: 1.27,inactive: 0.196
COc1cc2c(cc1OC)[C@H]1C[C@@H](O)[C@H](CC(C)C)CN1CC2 [(+)-alpha-Dihydrotetrabenazine],inactive: -1.28,inactive: -0.442,inactive: 3.19
CC(=O)OCOC(=O)C1N2C(=O)C(NC(=O)Cc3ccccc3)C2SC1(C)C (centres undefined),inactive: -2.29,inactive: 2.43,inactive: 0.538
CC(C)(O)Cn1c(=O)n(Cc2ccc(Br)cc2)c(=O)c2ccc(Cl)c(F)c21,inactive: -1.58,inactive: -1.67,inactive: 2.48
COc1ccc(CCN(C)CCCN(C(=O)c2ccc([N+](=O)[O-])cc2)c2ccc(OC)c(OC)c2)cc1OC,inactive: -0.881,inactive: 1.28,inactive: -1.61
CC(C)(C(=O)O)c1cn2nc(NCCCN3CCC(OC(c4ccccc4)c4ccccc4)CC3)ccc2n1,inactive: 0.894,inactive: -0.473,inactive: 0.755
CCOCCOC(=O)/C=C/c1ccc(OC)cc1,inactive: -3.68,active: 8.02,inactive: 0.896
CC1(C)CC=C(c2nc(C3CC(C)(C)OC(C)(C)C3)ccc2NC(=O)c2nc(C#N)c[nH]2)CC1,inactive: -1.77,inactive: -0.74,inactive: -1.03
CC(C)n1c(=O)c(C(=O)NC2CC3CCC(C2)N3C[C@@H](O)CN(C)S(C)(=O)=O)cc2ccccc21 (some centres undefined) [velusetrag],inactive: -1.16,inactive: 1.43,inactive: -1.01
COc1ccccc1OCCNCC(O)COc1cccc2[nH]c3ccccc3c12 (centres undefined) [carvedilol sulfate],,inactive: -0.959,
COc1ccccc1OCCNCC(O)COc1cccc2[nH]c3ccccc3c12 (centres undefined) [Carvedilol],inactive: -1.6,,inactive: -1.42
N=C(N)Nc1nc(-c2cccc(N)c2)cs1,inactive: -0.891,inactive: -1.29,inactive: 0.181
O=C(O)CCC(=O)Nc1ccc(S(=O)(=O)Nc2nccs2)cc1,inactive: 2.26,inactive: -0.334,inactive: 2.36
OCC1O[C@@H](Oc2cc3c(O)cc(O)cc3[o+]c2-c2cc(O)c(O)c(O)c2)[C@@H](O)C(O)[C@@H]1O (some centres undefined) [Delphinidin 3-glucoside chloride],inactive: -0.546,inactive: -1.41,inactive: 0.136
Cc1noc(-c2ccc(-c3ccc(C4(C(=O)O)CC4)cc3)cc2)c1NC(=O)O[C@H](C)c1ccccc1,,inactive: -1.85,
CCc1noc(C)c1-c1[nH]c2ccccc2c1C(O)CN(C)C (centres undefined),inactive: -2.05,inactive: -0.52,inactive: 3.68

SMILES,TEAD-luciferase reporter activity (compound concentration: 200 nM),TEAD-luciferase reporter activity (compound concentration: 2 uM),TEAD-luciferase reporter activity (compound concentration: 10 uM)
O=C(Nc1nn[nH]n1)c1cncc(N2CCCC2)n1,inactive: -1.71,inactive: -1.15,inactive: -0.682
CC1C(N)CN1c1cc2c(cc1F)c(=O)c(C(=O)O)cn2-c1ccc(F)cc1F (centres undefined),inactive: 0.8,inactive: 2,inactive: 1.74
CCN(C(=O)C1CCN(C(C)C)CC1)C(C)Cc1ccc(OC)cc1 (centres undefined),inactive: -1.88,inactive: 1.5,inactive: 2.57
CC(C)(CO)NCC(O)c1cc(O)cc(O)c1 (centres undefined),inactive: -0.341,inactive: 1,inactive: 0.0881
N#Cc1ccc(CN2CCC3(CC2)NC(=O)c2ccccc2O3)cc1,inactive: 0.478,,inactive: -0.293
CC(C)(C)c1cc(-c2cc(-c3ccc(C(=O)O)cc3)ccc2OCCO)ccc1N1CCCC1 [trifarotene],inactive: -2.53,inactive: -0.383,inactive: -0.502
NC(C(=O)Cl)c1ccccc1 (centres undefined),inactive: -1.1,inactive: -1.45,inactive: 0.452
CN(Cc1cccc(C(F)(F)F)c1)C(=O)[C@@H](CCC(=O)N1CCC(N2CCCCC2)CC1)N1C(=O)[C@@H](N2C(=O)OC[C@@H]2c2ccccc2)[C@H]1/C=C/c1ccccc1 [analog of SRX-251],,inactive: 1.06,
COc1cc2c(c(OC)c1OC)-c1c(cc(OC)c(OC)c1OC)C[C@](C)(O)[C@@H](C)C2 [Schizandrin],inactive: -1.25,inactive: 0.15,inactive: 0.128
O=C(CCBr)N1CCN(C(=O)CCBr)CC1 [Pipobroman],inactive: 3.58,inactive: -0.0648,inactive: 1.36
CC(C)Sc1cc(-c2ccc(CCNC[C@H](O)c3ccccc3)cc2)ccc1C(=O)NS(C)(=O)=O,inactive: -0.63,inactive: -0.614,inactive: -0.955
CCOC(=O)Nc1ccc(SCC2CO[C@](Cn3ccnc3)(c3ccc(Cl)cc3Cl)O2)cc1 (some centres undefined) [tubulozole],inactive: 0.647,active: 9.2,inactive: 3.13
N=C(N)NN=Cc1ccccc1Cl,inactive: -0.495,inactive: -0.977,inactive: 3.32
O=C(O)CCC/C=C(/c1ccc(CCNS(=O)(=O)c2ccc(Cl)cc2)cc1)c1cccnc1,inactive: -0.93,inactive: -0.853,inactive: -1.19
CC(C)NCC(O)COc1ccccc1C1CC2CCC1C2 (centres undefined),inactive: 1.36,inactive: 0.771,inactive: 4.3
COc1ccc(C(=O)Nc2ccccc2CCC2CCCCN2C)cc1 (centres undefined) [encainide],inactive: -0.952,inactive: -0.676,
CNCCCCNCC1CC1C (centres undefined),inactive: -0.843,inactive: 0.664,active: 5.08
CC(=O)Nc1ccc(OC(C)(C)C)cc1,inactive: -0.84,inactive: -0.609,inactive: 1.78
CC(C)(C)c1ccc(CCC(O)COc2ccc(C(=O)O)cc2)cc1 (centres undefined) [lifibrol],inactive: 1.96,inactive: -0.411,inactive: 0.259
NC(=O)c1nc(F)cnc1O,inactive: 1.45,,inactive: -1.05

# 3 consecutive records already listed, quoted:
SMILES,TEAD-luciferase reporter activity (compound concentration: 200 nM),TEAD-luciferase reporter activity (compound concentration: 2 uM),TEAD-luciferase reporter activity (compound concentration: 10 uM)
OCC1O[C@@H](Oc2cc3c(O)cc(O)cc3[o+]c2-c2cc(O)c(O)c(O)c2)[C@@H](O)C(O)[C@@H]1O (some centres undefined) [Delphinidin 3-glucoside chloride],inactive: -0.546,inactive: -1.41,inactive: 0.136
Cc1noc(-c2ccc(-c3ccc(C4(C(=O)O)CC4)cc3)cc2)c1NC(=O)O[C@H](C)c1ccccc1,,inactive: -1.85,
CCc1noc(C)c1-c1[nH]c2ccccc2c1C(O)CN(C)C (centres undefined),inactive: -2.05,inactive: -0.52,inactive: 3.68

# (cont.)

SMILES,TEAD-luciferase reporter activity (compound concentration: 200 nM),TEAD-luciferase reporter activity (compound concentration: 2 uM),TEAD-luciferase reporter activity (compound concentration: 10 uM)
NC(=O)c1nc(F)cnc1O [Favipiravir],,inactive: 1.7,
Nc1nc2c(s1)CCc1c-2sc2nc(-c3ccccc3)cn12,inactive: -0.92,inactive: -2.45,inactive: -3.09
N=C(NC(=O)c1nc(Cl)c(N)nc1N)NC1CCN(C(=O)c2ccc(C(=O)N3CCC(NC(=N)NC(=O)c4nc(Cl)c(N)nc4N)CC3)cc2)CC1,inactive: 1.66,inactive: 0.434,inactive: 1.55
CCOC(Nc1ccc(C(=O)O)cc1)C(=O)c1ccc(-c2ccccc2)cc1 (centres undefined),inactive: -0.812,inactive: -0.843,inactive: -1.55
Cc1c(Cl)cccc1S(=O)(=O)Nc1nc(CCN2CCOCC2=O)cs1,inactive: 0.201,inactive: 0.253,inactive: 0.153
c1csc(-c2cn3c(n2)SCC3)c1,inactive: -0.227,inactive: 0.538,inactive: 4.5
O=S1(=O)CS(=O)(=O)OCCO1 [cyclodisone],inactive: -1.21,inactive: 1.21,inactive: -0.556
CONC1=C(C)[C@@H](/C(C)=C/C(C)C)O[C@]2(C1)C[C@@H]1C[C@@H](C/C=C(\C)C[C@@H](C)/C=C/C=C3\CO[C@@H]4[C@H](O)C(C)=C[C@@H](C(=O)O1)[C@]34O)O2 [Moxidectin],inactive: -0.353,inactive: 0.293,inactive: -3.36
"C=CCOc1ccccc1OCC(O)CNC(C)C (centres undefined) [oxprenolol, Alza]",inactive: -0.788,,inactive: -0.46
C=CCOc1ccccc1OCC(O)CNC(C)C (centres undefined) [oxprenolol],,inactive: 2.72,
CNCCCN1c2ccccc2CCc2ccccc21 [Desipramine],inactive: 0.00999,inactive: -0.738,inactive: -0.162
NC(=O)Oc1ccc(Cc2ccccc2)cc1,inactive: -0.35,inactive: 0.0732,inactive: -0.854
O=C(c1ccccc1F)N1CCC(n2c(=O)[nH]c3ccccc32)CC1,inactive: 0.0143,,active: 6.73
Cc1ccn(-c2cc(Cl)ccc2[C@@H](Oc2cc(-c3ccc(C[C@H](N)C(=O)O)cc3)nc(N)n2)C(F)(F)F)n1,,inactive: 1.23,
Cc1ccn(-c2cc(Cl)ccc2[C@@H](Oc2cc(-c3ccc(C[C@H](N)C(=O)O)cc3)nc(N)n2)C(F)(F)F)n1 [Telotristat],inactive: 0.381,,inactive: 4.4
CNC(=O)c1ccc(N2C[C@H](CNC(C)=O)OC2=O)cc1F,inactive: -1.58,inactive: -0.294,inactive: -1.27
CNCC(C)C1CCCCC1 (centres undefined),inactive: 0.905,inactive: -0.229,inactive: 1.04
CCCN1CCCCC12Cc1ccccc1CN(C(=O)C1CCCC1)C2 (centres undefined),inactive: -2.53,,inactive: -1.03
Cc1nccc2[nH]c(=O)ccc12 [Medori],inactive: -0.342,inactive: -1.21,inactive: -0.0433
